Some of the results follow. The main result of the screen is listed elsewhere. These columns were measured beside it and carry no call. Compounds called inactive in the main read-out are mostly missing here. Words in brackets tell the shape of the fitted curve; partial curves, single points and poor fits give uncertain potencies.
Experiment: qHTS Assay to Find Inhibitors of Chronic Active B-Cell Receptor Signaling
Conditions: ABC-DLBCL IkBa-CBG/CBR reporter, luminescence ratio (green luciferase fused to IkBa over red control in TMD8 lymphoma cells), 4 h
In short: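 Doxycycline induced both beetle luciferases in TMD8 lymphoma cells; IKK-driven degradation limits the IkappaBalpha-fused green signal, while red luminescence normalises for cell number and nonspecific effects. Compounds tested up to 46 uM, 4 hrs.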

[1] = measured here: CBR red luminescence, cell number
[2] = measured here: IkBa-CBG green luminescence

| SMILES | AC50 [1] | AC50 [2] |
| --- | --- | --- |
| CCOc1ccccc1NC(=O)CSc1nnc(-c2ccco2)n1Cc1ccco1 | 15.8 µM [falling, single point] |  |
| CC1CN(c2nnc(NC(=O)c3ccccc3)s2)CC(C)O1 (configuration not stated) | 10 µM [falling, partial curve, poor fit] |  |
| CCOC(=O)COc1cc(-n2c(=S)[nH]c3cc(OC)c(OC)cc3c2=O)c(Cl)cc1Cl | 35.5 µM [falling, single point] | 35.5 µM [rising, partial curve, poor fit] |
| Cc1ccc(N2CC(=O)Nc3c(sc4nc(C)cc(C)c34)C2=O)cc1 | 7.94 µM [rising, partial curve, poor fit] |  |
| O=C(N/N=C/c1ccc(N2CCCCC2)o1)c1ccccc1[N+](=O)[O-] | 20.6 µM [falling, partial curve] |  |
| COc1cccc(C2CC(c3ccccc3Cl)n3nnnc3N2)c1 (configuration not stated) | 16.4 µM [falling, partial curve] |  |
| Clc1ccc(Cc2nc(-c3ccncc3)no2)cc1 | 35.5 µM [rising, single point] |  |
| CCOC(=O)c1c(/N=C/c2ccc(C)cc2O)sc2c1CCC2 | 29.1 µM [rising, single point] |  |
| O=C1C[C@H]2[C@H](CO)[C@@H](OC(=O)c3ccc(-c4ccccc4)cc3)C[C@H]2O1 | 3.98 µM [rising, full curve, poor fit] |  |
| O=C(NN1C(=O)NC2(CCCCC2)C1=O)c1ccc(Cl)s1 | 0.92 µM [rising, full curve, poor fit] |  |
| Cc1ccc(C(=O)NCCn2cc(SCC(=O)Nc3cc(C)on3)c3ccccc32)cc1 | 20.6 µM [falling, single point] |  |
| CC(=O)Oc1ccccc1/C=C/c1ccc2ccccc2[n+]1C | 22.4 µM [falling, single point] |  |
| COc1ccc(CNc2ncnc3c2c(-c2ccccc2)cn3-c2ccc(C)c(Cl)c2)cc1 | 35.5 µM [rising, single point] |  |
| Cc1cccc(C(=O)Oc2csc(=S)n2C(=O)c2cccc(C)c2)c1 | 29.1 µM [falling, single point] |  |
| O=C(N/N=C/c1cccc(Oc2ccccc2)c1)c1ccccc1F | 20 µM [falling, partial curve, poor fit] |  |
| CCOC(=O)COc1ccc(C)cc1-c1ccno1 | 2.06 µM [falling, single point] |  |
| CC(=O)c1ccc2c(c1)c1ccccc1n2CC(C)C | 18.4 µM [falling, partial curve] |  |
| Cc1ccc(C)c(OCCC(=O)OCC(=O)c2ccc3c(c2)NC(=O)CO3)c1 | 16.4 µM [rising, single point] |  |
| C=CCC[C@@H](Cc1ccc(F)cc1)C(=O)OC[C@H](Cc1c[nH]c2ccccc12)NC(=O)[C@@H](CC=C)CC(=O)NCCO | 16.4 µM [falling, single point] |  |
| CC(C)OC(=O)c1cc2ccccc2[nH]1 | 2.06 µM [rising, full curve, poor fit] |  |

| SMILES | AC50 [1] | AC50 [2] |
| --- | --- | --- |
| CCn1cc(C(=O)N2CC=C(c3ccccc3)CC2)c(=O)c2ccc(C)nc21 | 7.08 µM [falling, full curve, poor fit] |  |
| CCOC(=O)c1cnn(-c2ccccc2)c1N | 29.1 µM [falling, single point] |  |
| CC(C)C[C@H](NC(=O)N1CCn2c1nc1ccccc12)C(=O)NCCc1ccccc1 | 11.2 µM [falling, partial curve, poor fit] |  |
| C/C(=N\NC(=O)c1ccc(N/N=C(\C)c2ccc(O)cc2)cc1)c1ccc(O)cc1 | 3.55 µM [falling, partial curve] |  |
| Cc1nnc(NC(=O)c2sc3nc(-c4cccs4)cc(C(F)(F)F)c3c2N)s1 | 11.2 µM [falling, partial curve, poor fit] |  |
| COc1ccc2[nH]c3c(=O)n(/N=C/[C@H]4C(C)C=C(C)CC4C)c(=O)[nH]c3c2c1 (some centres not stated) | 3.16 µM [falling, partial curve, poor fit] |  |
| O=C(Cn1cnc2cc([N+](=O)[O-])ccc2c1=O)Nc1ccc(N2CCOCC2)cc1 | 5.01 µM [falling, partial curve, poor fit] |  |
| Cc1onc(-c2ccccc2)c1C(=O)N/N=C/c1ccc([N+](=O)[O-])s1 | 10.3 µM [falling, partial curve] |  |
| CCOC(=O)c1cnn(-c2nc(-c3ccccc3F)cs2)c1C(F)(F)F | 17.8 µM [rising, partial curve, poor fit] |  |
| CN1C(=O)/C(=C/c2ccccc2F)Sc2ccc(C(=O)N3CCCC3)cc21 | 17.8 µM [falling, partial curve, poor fit] |  |
| CN1C(=O)N(CN2CCCCC2)C2C1N(C)C(=O)N2CN1CCCCC1 (configuration not stated) | 6.51 µM [falling, single point] | 3.66 µM [rising, partial curve, poor fit] |
| Cc1cccc(C)c1OCCn1nc(C(=O)O)c2ccccc2c1=O | 29.1 µM [falling, single point] |  |
| CC(C)C(O)(C#CCN1CCCCCC1)c1ccccc1 (configuration not stated) | 35.5 µM [falling, single point] |  |
| COc1ccccc1Nc1nc(-c2sc(NC(=O)c3ccccc3)nc2C)cs1 | 28.2 µM [falling, single point] |  |
| CCCCNC(=O)NNC(=O)c1ccoc1C | 12.6 µM [falling, partial curve] |  |
| CC(=O)c1sc(NS(=O)(=O)c2ccc(C)cc2)nc1-c1ccccc1 | 35.5 µM [falling, single point] |  |
| CNC(=O)c1cc2c(-c3ccccc3)nn(C)c2s1 | 3.55 µM [falling, single point] |  |
| COc1ccc(O)c(/C=N/N=C2/C(=O)Nc3ccccc32)c1 | 14.1 µM [falling, single point] |  |
| COc1cccc(C(=O)Nc2nnc(C(C)C)s2)c1 | 16.4 µM [falling, single point] |  |
| O=C(O)c1nn(CCOc2ccccc2F)c(=O)c2ccccc12 | 0.224 µM [rising, partial curve, poor fit] |  |

Two successive compounds already listed, for reference:

| SMILES | AC50 [1] | AC50 [2] |
| --- | --- | --- |
| Cc1onc(-c2ccccc2)c1C(=O)N/N=C/c1ccc([N+](=O)[O-])s1 | 10.3 µM [falling, partial curve] |  |
| CCOC(=O)c1cnn(-c2nc(-c3ccccc3F)cs2)c1C(F)(F)F | 17.8 µM [rising, partial curve, poor fit] |  |

Reference: PubChem BioAssay AID493014 (National Center for Advancing Translational Sciences (NCATS), 2011)
